According to PMC10813223:
Results are given in words; binding and its absence hold for the method and conditions named. In cells and extracts the contact can be indirect. Some results given as binding are weak or reduced against the parent protein; the word gives no strength.

Sequences of proteins named here, by UniProt entry; tags and fusion partners are left off. A change or cut given only in a name is not applied to a line headed by its entry.
UniProt P61586: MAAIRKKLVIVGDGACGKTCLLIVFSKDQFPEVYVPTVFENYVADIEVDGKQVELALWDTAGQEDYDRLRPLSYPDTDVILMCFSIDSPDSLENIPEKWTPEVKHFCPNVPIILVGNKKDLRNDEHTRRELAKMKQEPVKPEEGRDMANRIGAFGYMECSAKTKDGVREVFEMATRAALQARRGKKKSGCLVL
UniProt P35579: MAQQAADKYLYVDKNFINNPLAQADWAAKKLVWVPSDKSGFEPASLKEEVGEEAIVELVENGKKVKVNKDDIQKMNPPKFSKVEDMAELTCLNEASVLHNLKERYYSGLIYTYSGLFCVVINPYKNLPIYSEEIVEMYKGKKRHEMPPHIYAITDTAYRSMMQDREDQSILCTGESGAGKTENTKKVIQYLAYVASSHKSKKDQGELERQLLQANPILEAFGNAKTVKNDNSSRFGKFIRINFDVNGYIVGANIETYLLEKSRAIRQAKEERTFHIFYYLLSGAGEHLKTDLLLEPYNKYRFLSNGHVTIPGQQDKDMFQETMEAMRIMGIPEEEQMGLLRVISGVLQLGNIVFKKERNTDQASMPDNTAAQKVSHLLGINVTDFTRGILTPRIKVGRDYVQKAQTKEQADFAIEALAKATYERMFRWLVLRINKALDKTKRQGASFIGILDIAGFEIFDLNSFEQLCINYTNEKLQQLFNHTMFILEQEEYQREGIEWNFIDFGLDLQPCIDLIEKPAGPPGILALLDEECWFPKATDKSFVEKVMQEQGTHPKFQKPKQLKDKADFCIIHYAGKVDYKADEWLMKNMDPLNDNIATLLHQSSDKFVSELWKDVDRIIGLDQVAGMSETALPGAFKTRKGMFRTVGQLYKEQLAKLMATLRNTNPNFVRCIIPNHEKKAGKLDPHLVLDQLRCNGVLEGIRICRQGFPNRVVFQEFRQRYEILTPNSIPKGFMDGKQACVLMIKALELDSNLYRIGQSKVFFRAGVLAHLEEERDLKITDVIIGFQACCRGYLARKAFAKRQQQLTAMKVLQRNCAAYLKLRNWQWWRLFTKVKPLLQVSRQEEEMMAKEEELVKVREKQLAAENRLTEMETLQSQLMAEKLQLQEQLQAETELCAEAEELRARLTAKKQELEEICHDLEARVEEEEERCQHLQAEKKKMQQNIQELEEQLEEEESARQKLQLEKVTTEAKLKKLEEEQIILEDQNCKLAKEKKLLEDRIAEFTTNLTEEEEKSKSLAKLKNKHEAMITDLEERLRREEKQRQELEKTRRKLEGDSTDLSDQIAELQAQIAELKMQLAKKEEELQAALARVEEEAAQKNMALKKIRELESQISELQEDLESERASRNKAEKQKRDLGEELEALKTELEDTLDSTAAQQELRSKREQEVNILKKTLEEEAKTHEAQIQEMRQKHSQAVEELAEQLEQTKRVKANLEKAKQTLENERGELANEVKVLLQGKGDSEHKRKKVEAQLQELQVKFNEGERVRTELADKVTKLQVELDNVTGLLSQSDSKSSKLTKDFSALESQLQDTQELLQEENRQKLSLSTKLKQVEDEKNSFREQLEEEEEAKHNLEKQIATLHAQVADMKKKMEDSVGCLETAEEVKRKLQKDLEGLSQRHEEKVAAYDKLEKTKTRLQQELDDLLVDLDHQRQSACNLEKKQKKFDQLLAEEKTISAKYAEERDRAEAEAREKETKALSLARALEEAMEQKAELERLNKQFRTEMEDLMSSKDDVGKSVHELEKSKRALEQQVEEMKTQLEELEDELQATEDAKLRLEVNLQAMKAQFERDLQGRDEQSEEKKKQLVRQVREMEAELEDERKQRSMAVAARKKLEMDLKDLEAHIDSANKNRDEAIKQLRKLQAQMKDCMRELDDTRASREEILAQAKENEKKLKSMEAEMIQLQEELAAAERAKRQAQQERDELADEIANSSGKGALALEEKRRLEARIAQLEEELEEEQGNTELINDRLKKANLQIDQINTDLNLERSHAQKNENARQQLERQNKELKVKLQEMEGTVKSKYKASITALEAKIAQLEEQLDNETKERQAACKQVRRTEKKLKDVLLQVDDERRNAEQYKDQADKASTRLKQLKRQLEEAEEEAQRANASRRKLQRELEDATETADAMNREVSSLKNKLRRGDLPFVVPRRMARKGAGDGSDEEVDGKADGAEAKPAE

Columns and labels:
[1] = target: T1, phospholipase D1 (PLD1) (human (endogenous in A549)) (UniProt Q13393); assay: co-IP; endogenous proteins; antibody to PLD1, p-Y42 RhoA or MYH9 with protein A/G-agarose beads; lysates of A549 cells untreated or stimulated with LPS (5 ug/mL, 24 h); 20 mM Tris pH 7.4, 120 mM NaCl, 1 mM MgCl2, 1% Nonidet P-40; antibody overnight at 4 C; immunoblot
T1 sequence: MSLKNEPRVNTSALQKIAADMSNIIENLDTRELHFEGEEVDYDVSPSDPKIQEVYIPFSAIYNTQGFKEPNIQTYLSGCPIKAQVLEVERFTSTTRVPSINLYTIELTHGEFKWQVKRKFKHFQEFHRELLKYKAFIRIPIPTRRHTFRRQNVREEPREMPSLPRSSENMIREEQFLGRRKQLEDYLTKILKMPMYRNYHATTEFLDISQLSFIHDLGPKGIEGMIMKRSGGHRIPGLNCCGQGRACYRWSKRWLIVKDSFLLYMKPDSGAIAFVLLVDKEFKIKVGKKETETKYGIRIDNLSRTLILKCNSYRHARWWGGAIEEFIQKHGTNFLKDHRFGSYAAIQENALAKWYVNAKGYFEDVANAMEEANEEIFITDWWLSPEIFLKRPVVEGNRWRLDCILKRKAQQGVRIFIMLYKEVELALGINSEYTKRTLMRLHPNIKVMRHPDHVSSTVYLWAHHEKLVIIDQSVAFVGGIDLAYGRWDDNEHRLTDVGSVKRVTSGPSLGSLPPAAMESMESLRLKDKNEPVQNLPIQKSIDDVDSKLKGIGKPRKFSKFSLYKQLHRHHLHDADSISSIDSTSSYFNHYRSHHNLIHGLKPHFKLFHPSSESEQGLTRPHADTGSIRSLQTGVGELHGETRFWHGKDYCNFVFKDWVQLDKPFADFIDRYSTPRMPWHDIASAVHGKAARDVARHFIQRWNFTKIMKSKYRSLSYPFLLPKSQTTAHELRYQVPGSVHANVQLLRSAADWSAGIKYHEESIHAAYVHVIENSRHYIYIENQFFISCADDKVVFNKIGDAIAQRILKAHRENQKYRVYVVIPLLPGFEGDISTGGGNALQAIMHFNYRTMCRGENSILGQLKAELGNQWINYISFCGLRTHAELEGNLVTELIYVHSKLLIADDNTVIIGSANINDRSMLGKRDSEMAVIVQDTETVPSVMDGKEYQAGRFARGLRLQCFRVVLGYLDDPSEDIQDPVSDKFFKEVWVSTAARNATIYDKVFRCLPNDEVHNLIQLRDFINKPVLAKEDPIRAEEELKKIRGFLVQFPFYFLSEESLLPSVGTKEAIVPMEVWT

[2] = target: p-Tyr42 RhoA (human (endogenous in A549)) (UniProt P61586); assay: as above
[3] = target: MYH9 (Myosin IIA, non-muscle myosin IIA) (human (endogenous in A549)) (UniProt P35579); assay: as above
HA-RhoA WT = HA-RhoA WT (UniProt P61586); assay: co-IP; A549 cells transfected with HA-RhoA WT, Y42E or Y42F for 24 h, serum-depleted 8 h, stimulated by LPS for 24 h; immunoprecipitation using the HA probe; PLD1 detected by Western blotting
HA-RhoA Y42E = HA-RhoA Y42E (UniProt P61586); assay: as above

For “MYH9 (Myosin IIA, non-muscle myosin IIA) (from UniProt P35579 1-1960)”, the binding [1] was “binds”.

RhoA (from UniProt P61586 1-193) was tested, and the binding [1] was “binds”.

With “p-Tyr42 RhoA (from UniProt P61586 1-193)” the binding [1] was “binds”.

B1: phospholipase D1 (PLD1) (enzyme, UniProt Q13393 1-1074)
chain: T1 sequence
B1 was tested, and the binding [2] was “binds”, the binding [3] was “binds” and the binding (HA-RhoA WT) was “binds”. The binding (HA-RhoA Y42E) was “binds”.
